From article doi:10.1101/2025.11.20.689626
Read-outs that look alike come from different tables or passages of the source. These are yes or no findings as the source states them, for the method shown. In cells and extracts the contact can be indirect. Some entries that bind do so weakly or less than the wild type.

Amino acid sequences for entries named in this document (tags omitted). A change or cut given only in a name is not applied to a line headed by its entry.
UniProt O75417: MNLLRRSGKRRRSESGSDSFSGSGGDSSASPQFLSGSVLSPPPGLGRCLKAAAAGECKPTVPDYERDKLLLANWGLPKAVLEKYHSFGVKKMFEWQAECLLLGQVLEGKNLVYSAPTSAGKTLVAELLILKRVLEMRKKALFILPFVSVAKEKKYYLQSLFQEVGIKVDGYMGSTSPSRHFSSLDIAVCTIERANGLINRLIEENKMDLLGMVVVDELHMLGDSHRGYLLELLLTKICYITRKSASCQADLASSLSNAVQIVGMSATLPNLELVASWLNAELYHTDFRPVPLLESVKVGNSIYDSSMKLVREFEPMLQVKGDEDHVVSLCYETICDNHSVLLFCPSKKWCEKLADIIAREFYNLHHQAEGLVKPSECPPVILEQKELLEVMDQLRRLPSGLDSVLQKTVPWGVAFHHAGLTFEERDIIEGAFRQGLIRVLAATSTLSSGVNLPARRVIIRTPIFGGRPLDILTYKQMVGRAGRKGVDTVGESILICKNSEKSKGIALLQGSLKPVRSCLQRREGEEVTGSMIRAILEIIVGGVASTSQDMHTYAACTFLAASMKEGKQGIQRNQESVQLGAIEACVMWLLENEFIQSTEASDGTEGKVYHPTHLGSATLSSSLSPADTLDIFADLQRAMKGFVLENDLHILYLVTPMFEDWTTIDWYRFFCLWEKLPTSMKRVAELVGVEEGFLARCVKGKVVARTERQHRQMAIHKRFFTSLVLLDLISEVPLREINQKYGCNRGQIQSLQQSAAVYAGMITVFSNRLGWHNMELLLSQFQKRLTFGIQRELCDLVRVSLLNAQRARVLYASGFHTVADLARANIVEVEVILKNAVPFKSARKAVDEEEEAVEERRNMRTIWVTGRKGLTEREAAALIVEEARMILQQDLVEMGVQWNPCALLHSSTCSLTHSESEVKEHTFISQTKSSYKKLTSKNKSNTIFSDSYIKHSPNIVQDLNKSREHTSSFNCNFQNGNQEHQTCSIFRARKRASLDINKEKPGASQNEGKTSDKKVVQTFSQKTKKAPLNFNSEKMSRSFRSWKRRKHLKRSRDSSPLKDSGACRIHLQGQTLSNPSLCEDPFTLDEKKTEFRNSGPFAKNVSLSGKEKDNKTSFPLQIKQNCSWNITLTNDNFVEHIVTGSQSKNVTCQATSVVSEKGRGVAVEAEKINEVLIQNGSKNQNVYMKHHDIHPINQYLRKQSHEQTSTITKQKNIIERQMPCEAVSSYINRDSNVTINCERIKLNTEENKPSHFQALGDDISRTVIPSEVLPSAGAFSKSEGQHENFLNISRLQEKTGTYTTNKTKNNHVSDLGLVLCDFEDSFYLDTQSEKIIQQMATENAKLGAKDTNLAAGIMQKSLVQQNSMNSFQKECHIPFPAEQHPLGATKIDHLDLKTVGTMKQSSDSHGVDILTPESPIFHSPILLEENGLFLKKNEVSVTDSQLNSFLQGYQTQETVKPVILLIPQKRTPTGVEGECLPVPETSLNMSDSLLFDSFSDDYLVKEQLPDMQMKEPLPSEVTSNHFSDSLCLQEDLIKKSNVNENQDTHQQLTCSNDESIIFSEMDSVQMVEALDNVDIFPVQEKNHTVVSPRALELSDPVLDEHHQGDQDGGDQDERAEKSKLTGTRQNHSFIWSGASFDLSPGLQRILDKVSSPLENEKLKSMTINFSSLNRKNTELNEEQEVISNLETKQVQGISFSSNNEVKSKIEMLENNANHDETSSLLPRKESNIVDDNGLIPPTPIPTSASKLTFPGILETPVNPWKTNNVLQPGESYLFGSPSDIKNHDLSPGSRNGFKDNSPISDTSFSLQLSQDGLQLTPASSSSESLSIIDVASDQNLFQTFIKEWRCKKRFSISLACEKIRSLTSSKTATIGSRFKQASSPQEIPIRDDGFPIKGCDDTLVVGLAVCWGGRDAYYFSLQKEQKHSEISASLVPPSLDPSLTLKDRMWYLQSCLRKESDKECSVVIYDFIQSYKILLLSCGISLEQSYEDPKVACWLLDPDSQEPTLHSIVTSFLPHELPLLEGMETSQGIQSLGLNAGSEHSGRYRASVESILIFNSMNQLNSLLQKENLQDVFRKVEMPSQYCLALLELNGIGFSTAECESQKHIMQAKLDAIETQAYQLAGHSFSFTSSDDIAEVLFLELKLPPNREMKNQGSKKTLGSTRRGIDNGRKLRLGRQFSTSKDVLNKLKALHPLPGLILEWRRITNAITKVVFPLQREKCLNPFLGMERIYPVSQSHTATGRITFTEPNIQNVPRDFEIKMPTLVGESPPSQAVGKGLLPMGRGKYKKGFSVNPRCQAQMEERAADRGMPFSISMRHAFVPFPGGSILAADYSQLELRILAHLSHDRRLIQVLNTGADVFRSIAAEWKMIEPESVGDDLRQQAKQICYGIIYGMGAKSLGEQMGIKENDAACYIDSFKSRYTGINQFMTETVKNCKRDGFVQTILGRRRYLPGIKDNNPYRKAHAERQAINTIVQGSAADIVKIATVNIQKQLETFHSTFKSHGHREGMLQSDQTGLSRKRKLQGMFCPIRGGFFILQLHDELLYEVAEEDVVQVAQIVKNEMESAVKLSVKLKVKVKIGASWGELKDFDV
UniProt P54725: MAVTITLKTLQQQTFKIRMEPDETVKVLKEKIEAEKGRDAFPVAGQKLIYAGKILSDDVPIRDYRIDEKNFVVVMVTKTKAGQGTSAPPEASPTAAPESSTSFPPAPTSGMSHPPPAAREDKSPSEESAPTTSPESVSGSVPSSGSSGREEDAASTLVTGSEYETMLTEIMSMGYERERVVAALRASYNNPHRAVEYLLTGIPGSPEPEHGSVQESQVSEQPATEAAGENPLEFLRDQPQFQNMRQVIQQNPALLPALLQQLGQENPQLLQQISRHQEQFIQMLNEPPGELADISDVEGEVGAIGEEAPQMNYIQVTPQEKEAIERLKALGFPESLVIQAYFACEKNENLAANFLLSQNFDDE

Legend:
Assay in all cases: co-IP
POLQ of Fig. S4B [1] = biological target: POLQ of Fig. S4B (UniProt O75417)
POLQ of Fig. S4B [2] = biological target: POLQ of Fig. S4B (UniProt O75417); remark: listed apart in the source
[3] = biological target: 3xFLAG-tagged full-length POLQ (UniProt O75417)
[4] = biological target: 3xFLAG-tagged full-length POLQ (UniProt O75417); remark: listed apart in the source

binding (POLQ of Fig. S4B [1])	binding (POLQ of Fig. S4B [2])	binding [3]	binding [4]	Substance
binds	binds weakly			RAD23A (endogenous) (from UniProt P54725 1-363)
		binds weakly	binds	V5-tagged RAD23A (from UniProt P54725 1-363)
